The source of these data is PubChem BioAssay AID248 (DTP/NCI, 2004).

The test system of the experiment is L1210 leukemia ip in BDF1 mice, survival T/C. The experiment in a line: NCI In Vivo Anticancer Drug Screen. Data for tumor model L1210 Leukemia (intraperitoneal) in B6D2F1 (BDF1) mice. The conditions noted are these: T/C endpoint: mean survival time, higher T/C = longer survival.
Where [1] appears, read: dose: 400.0 mg/kg/injection, schedule: Q04DX003 (ip), vehicle: saline with Tween-80.
Setting [2] is: dose: 40.0 mg/kg/injection, schedule: Q01DX001 (ip), vehicle: saline.
Where [3] appears, read: dose: 80.0 mg/kg/injection, schedule: Q01DX001 (ip), vehicle: saline.
The mark [4] stands for this setting: dose: 100.0 mg/kg/injection, schedule: Q01DX001 (ip), vehicle: saline.
The mark [5] stands for this setting: dose: 200.0 mg/kg/injection, schedule: Q01DX001 (ip), vehicle: saline.
Where [6] appears, read: dose: 400.0 mg/kg/injection, schedule: Q01DX001 (ip), vehicle: saline.

The list does not hold the whole screen: it gathers tests that were run many times, whatever their T/C, doses with no T/C, and many T/C values between a quarter and a half above the control. Further doses and runs are listed elsewhere. T/C: endpoint of the treated group in % of that of the vehicle group. Some entries give survivors of the animals treated and no T/C: the source files T/C as zero there, which appears to mark a toxic dose or a test without result, not a measured value. Some survivor counts are full or nearly so, which does not show that the dose was tolerated: the source hardly ever lists a survival T/C far under the control, and the zero likely stands for such cases as well. Survivors were counted at the toxicity check, usually on the fifth day, unless a day is given; later deaths do not show. Schedules are NCI's codes, read here as Q, the interval in days (D) or hours (H), X, the number of doses. Some molecules as drawn cover several salts, stereoisomers or complexes of the source; a dose is that of the sample tested. Some entries hold several experiments; their values stand side by side, smallest first. Some schedule codes hold Z or #, which are not explained here. Marks such as (2×) count equal records among those shown. For survival time, the PubChem record calls one and a half times the control and up active, and a quarter to a half above the control has no call in these data; cut-offs in other NCI protocols can differ.

As for `CCCC(CCN1CCCC1)(CNC(=O)CN(CC)CC)c1cccc2ccccc12` (stereo not drawn), the survivor count is given as 3 of 5 (dose: 100.0 mg/kg/injection, schedule: Q01DX009 (ip), vehicle: saline); 3 of 6 (dose: 200.0 mg/kg/injection, schedule: Q01DX009 (ip), vehicle: saline); 0 of 6 (dose: 400.0 mg/kg/injection, schedule: Q01DX009 (ip), vehicle: saline).

With `CCCCCCC(=O)C1OC1CCCCCCCCC(=O)O` (stereo not drawn), for the setting “dose: 200.0 mg/kg/injection, schedule: Q04DX002 (ip), vehicle: other”, the T/C was 125 % of control.

Regarding `CCOC(C)=N`, for the setting “dose: 400.0 mg/kg/injection, schedule: Q01DX008 (ip), vehicle: saline”, the survivor count is given as 2 of 6.

On to `ClC1(Cl)Cc2ccccc21`, for which the T/C by setting is: (dose: 100.0 mg/kg/injection, schedule: Q04DX003 (ip), vehicle: saline with Tween-80) 134 % of control; under setting [1], 135 % of control.

`COc1ccc2cc3[n+](cc2c1OC)CCc1cc2c(cc1-3)OCO2`: the survivor count (dose: 25.0 mg/kg/injection, schedule: Q01DX009 (ip), vehicle: Klucel (hydroxypropylcellulose) (HPC)) is 1 of 6 and 6 of 6; the survivor count (dose: 25.0 mg/kg/injection, schedule: Q01DX Z (ip), vehicle: saline) is on record as 3 of 7; the survivor count under setting [2] is 1 of 4; the survivor count (dose: 50.0 mg/kg/injection, schedule: Q01DX009 (ip), vehicle: Klucel (hydroxypropylcellulose) (HPC)) was 0 of 6 (2×); the survivor count (dose: 50.0 mg/kg/injection, schedule: Q01DX Z (ip), vehicle: saline) was 0 of 7; the survivor count (dose: 75.0 mg/kg/injection, schedule: Q01DX Z (ip), vehicle: saline) was 0 of 7. Also, the survivor count is, setting by setting: under setting [3], 0 of 4; under setting [4], 0 of 4; (dose: 100.0 mg/kg/injection, schedule: Q01DX009 (ip), vehicle: Klucel (hydroxypropylcellulose) (HPC)) 0 of 6; under setting [5], 0 of 4; (dose: 200.0 mg/kg/injection, schedule: Q01DX009 (ip), vehicle: Klucel (hydroxypropylcellulose) (HPC)) 0 of 6; under setting [6], 0 of 4.

For `CN1C(=O)C2C(N=CN2C)N(C)C1=O` (stereo not drawn), under “dose: 400.0 mg/kg/injection, schedule: Q01DX009 (ip), vehicle: saline with Tween-80”, the survivor count is 0 of 6.

As to `c1ccc(Oc2ccc(-c3ccc(Oc4ccccc4)cc3)cc2)cc1`, the survivor count (dose: 200.0 mg/kg/injection, schedule: Q01DX009 (ip), vehicle: saline with Tween-80) was 6 of 6.

As for `CC1CN1c1nc(N2CC2C)nc(N2CC2C)n1` (stereo not drawn), the survivor count was 0 of 6 (dose: 25.0 mg/kg/injection, schedule: Q01DX009 (ip), vehicle: saline); 0 of 4 under setting [2]; 0 of 4 (dose: 50.0 mg/kg/injection, schedule: Q01DX001 (ip), vehicle: saline); 0 of 4 under setting [3]; 0 of 4 under setting [4]; 0 of 4 under setting [5]. The survivor count under setting [6] is on record as 0 of 4.

Take `FC(F)(F)c1ccc(-c2ccc(OCCN3CCCC3)cc2)cc1`: the survivor count is given as 6 of 6 (dose: 37.5 mg/kg/injection, schedule: Q01DX009 (ip), vehicle: saline); 3 of 6 (dose: 75.0 mg/kg/injection, schedule: Q01DX009 (ip), vehicle: saline); 0 of 6 (dose: 150.0 mg/kg/injection, schedule: Q01DX009 (ip), vehicle: saline); 0 of 6 (dose: 300.0 mg/kg/injection, schedule: Q04DX003 (ip), vehicle: saline).

With `Fc1cc(F)c(CCl)c(F)c1`, the survivor count (dose: 400.0 mg/kg/injection, schedule: Q01DX009 (ip), vehicle: acetone) is recorded as 0 of 6.

As to `O=C(NCCc1ccccc1)c1ccc2ccccc2n1`, the survivor count runs as follows: (dose: 12.5 mg/kg/injection, schedule: Q01DX009 (ip), vehicle: DMSO) 6 of 6; (dose: 50.0 mg/kg/injection, schedule: Q01DX009 (ip), vehicle: DMSO) 2 of 6; (dose: 100.0 mg/kg/injection, schedule: Q01DX009 (ip), vehicle: DMSO) 5 of 6; (dose: 200.0 mg/kg/injection, schedule: Q01DX009 (ip), vehicle: DMSO) 2 of 6; (dose: 400.0 mg/kg/injection, schedule: Q01DX009 (ip), vehicle: DMSO) 0 of 6.

As to `S=C(Nc1ccccc1)Nc1cccc2ccccc12`, the survivor count (dose: 400.0 mg/kg/injection, schedule: Q04DX002 (ip), vehicle: Klucel (hydroxypropylcellulose) (HPC)) is on record as 3 of 3.

With `CN=C(NCc1ccccc1)c1ccc(NC(=O)c2ccc(C(=O)Nc3ccc(C(=NC)NCc4ccccc4)cc3)cc2)cc1`, the survivor count is 0 of 6 (dose: 15.0 mg/kg/injection, schedule: Q01DX Z (ip), vehicle: methylcellulose (MC)); 0 of 6 (dose: 30.0 mg/kg/injection, schedule: Q01DX Z (ip), vehicle: methylcellulose (MC)); 0 of 6 (dose: 60.0 mg/kg/injection, schedule: Q01DX Z (ip), vehicle: methylcellulose (MC)); 0 of 6 (dose: 120.0 mg/kg/injection, schedule: Q01DX Z (ip), vehicle: methylcellulose (MC)).

For `O=C1OC2(c3ccccc31)c1ccccc1-c1ccccc12`, the survivor count under setting [1] is 6 of 6.

Turning to `CN1CCN(C2CCCCc3ccccc32)CC1` (stereo not drawn), the survivor count is 0 of 6 (dose: 200.0 mg/kg/injection, schedule: Q04DX003 (ip), vehicle: saline with Tween-80) and 0 of 6 under setting [1].

On to `O=NN(CCCl)C(=O)Nc1ccc(S(=O)(=O)c2ccc(NC(=O)N(CCCl)N=O)cc2)cc1`, for which the T/C (dose: 1.5 mg/kg/injection, schedule: Q01DX001 (ip), vehicle: carboxymethylcellulose (CMC)) is 126 % of control; the T/C (dose: 3.0 mg/kg/injection, schedule: Q01DX001 (ip), vehicle: carboxymethylcellulose (CMC)) is 131 % of control; the T/C (dose: 6.0 mg/kg/injection, schedule: Q01DX001 (ip), vehicle: carboxymethylcellulose (CMC)) is 127 % of control; the T/C (dose: 15.0 mg/kg/injection, schedule: Q01DX001 (ip), vehicle: carboxymethylcellulose (CMC)) is 141 % of control; the T/C (dose: 30.0 mg/kg/injection, schedule: Q01DX001 (ip), vehicle: carboxymethylcellulose (CMC)) was 138 % of control; the T/C (dose: 60.0 mg/kg/injection, schedule: Q01DX001 (ip), vehicle: carboxymethylcellulose (CMC)) was 146 % of control. Also, the T/C by setting is: (dose: 120.0 mg/kg/injection, schedule: Q01DX001 (ip), vehicle: carboxymethylcellulose (CMC)) 142 % of control; (dose: 177.0 mg/kg/injection, schedule: Q01DX009 (ip), vehicle: carboxymethylcellulose (CMC)) 148 % of control; (dose: 266.0 mg/kg/injection, schedule: Q01DX001 (ip), vehicle: carboxymethylcellulose (CMC)) 143 % of control; (dose: 400.0 mg/kg/injection, schedule: Q01DX001 (ip), vehicle: carboxymethylcellulose (CMC)) 139 and 146 % of control.

As to `CCCCCCC[n+]1cccc(C#N)c1`, where the note is “dose: 300.0 mg/kg/injection, schedule: Q01DX001 (ip), vehicle: saline”, the survivor count is on record as 2 of 6.

Regarding `C1CC2CCC[N]3C2C(C1)[O][Pb]31[O]C2CCCC3CCC[N]1C32` (stereo not drawn), the survivor count by setting is: (dose: 120.0 mg/kg/injection, schedule: Q01DX015 (ip), vehicle: carboxymethylcellulose (CMC)) 5 of 6; (dose: 240.0 mg/kg/injection, schedule: Q01DX015 (ip), vehicle: carboxymethylcellulose (CMC)) 0 of 6; (dose: 400.0 mg/kg/injection, schedule: Q01DX009 (ip), vehicle: Klucel (hydroxypropylcellulose) (HPC)) 1 of 6.

With `O=C(O)COc1cc(Cl)c(Cl)cc1Cl` (tested in a mixture with another compound), the survivor count runs as follows: under setting [4], 0 of 6 and 1 of 6; under setting [5], 0 of 6; under setting [6], 0 of 6.
